PMC12040169 (PLOS Biology, 2025)
The list shows a part of the results.

Tested on: T1, CTL2-GFP (C. trachomatis L2/434/Bu, GFP-expressing)
T1 construct: L2/434/Bu, GFP-expressing
Parameters: species or system HeLa; Intracellular C. trachomatis growth in HeLa cells, bulk GFP fluorescence relative to DMSO
Conditions: bulk GFP, single well; 28.5 h, 10 µM; inhibitor

SMILES	% of control remaining
COC(=O)C(Nc1cccc(Cl)c1)(c1cc(OC)c(O)c(OC)c1)C(F)(F)F (stereo not shown) [CBK009591]	109.506%
CCCC/C=C/c1nccnc1N(C)Cc1ccccc1 [CBK037412]	173.468%
COc1ccc(Nc2cc(Cl)ccc2C(=O)N2CCN(c3ncccn3)CC2)cn1 [CBK107334]	125.024%
Cc1ccc2c(CC(=O)N3CCC(C(=O)O)CC3)coc2c1 [CBK286711]	119.849%
CC(C)N1CCc2c(sc3nc(SCc4ccc(Cl)cc4)n(Cc4ccccc4)c(=O)c23)C1 [CBK263745]	106.271%
CSc1nc(C(=O)NC2CCCN(c3ncccn3)C2)cs1 (stereo not shown) [CBK307198]	83.0941%
Cc1nnc(SCc2cc(=O)[nH]c(N3CCN(Cc4ccccc4)CC3)n2)s1 [CBK268837]	171.642%
COc1cc(OC)c(NC(=O)CSc2ccccn2)cc1Cl [CBK267303]	138.095%
Cc1c(C)n(Cc2ccco2)c2ncnc(NC(C)C(=O)O)c12 (stereo not shown) [CBK307561]	93.2935%
CC(C)[C@@]1(C)SC(N[C@H]2C[C@H]3C[C@@H]2C[C@@H]3O)=NC1=O [CBK138400]	116.114%
O=C1CCCN1CCCNc1nccnc1-c1cccnc1 [CBK089246]	154.312%
CC1(c2ccccc2)CC(=O)N(CCC(=O)O)C1=O (stereo not shown) [CBK287091]	112.883%
Cc1cccc(C)c1N1CCN(CC(O)COc2ccc3c(C)cc(=O)oc3c2)CC1 (stereo not shown) [CBK270084]	152.865%
CC(Cn1cccn1)NCc1cn(C)c2cc(F)ccc12 (stereo not shown) [CBK282220]	131.624%
CC(O)CNc1nccnc1-c1ccccc1 (stereo not shown) [CBK089257]	109.501%
C/C(=N\NC(=O)c1ccccc1O)c1ccc(NC(=O)c2ccc(C)cc2)cc1 [CBK261251]	114.258%
C=CCNC(CC(=O)Nc1ccc(C)c(Cl)c1)C(=O)O (stereo not shown) [CBK266892]	131.331%
CC(=O)N1CCCc2cc(C(O)CN3CCCC(C)(C)C3)ccc21 (stereo not shown) [CBK282143]	156.383%
Cn1ccnc1C1(O)CC2CCC(C1)N2C(=O)c1cccc(Cl)c1 (stereo not shown) [CBK284091]	125.82%
O=C(Cn1nnc(-c2ccc(CN3CCOCC3)cc2)n1)Nc1ccc(Br)cc1 [CBK127364]	100%
N#Cc1c(NC(=O)CSc2nnc3c(n2)[nH]c2ccccc23)sc2c1CCCC2 [CBK262417]	100.512%
Cc1ccc(CS(=O)(=O)N2CCN(CCO)C(C)C2)c(F)c1 (stereo not shown) [CBK304702]	114.706%
Cc1nn(CC(=O)N2CCC(C)CC2)c(=O)c2cc3sccc3n12 [CBK284083]	116.284%
CCCCN(C(=O)CC1SC(NC2CCCCCC2)=NC1=O)c1ccccc1 (stereo not shown) [CBK067392]	134.717%
Cc1c(C(C)NCC2CCCC2O)cnn1-c1ccc(C#N)cc1 (stereo not shown) [CBK304019]	102.871%
O=C(NCc1ccc2c(c1)OCO2)c1cncc(-c2ccc(C(=O)N3CCOCC3)cc2)c1 [CBK158614]	84.3677%
Cc1noc(C)c1S(=O)(=O)Nc1ccc(C(=O)Nc2ccc(F)cc2)cc1 [CBK034410]	108.366%

A few values from the results shown:
In % of control remaining, Cc1noc(C)c1S(=O)(=O)Nc1ccc(C(=O)Nc2ccc(F)cc2)cc1 [CBK034410] has 108.366%
In % of control remaining, CSc1nc(C(=O)NC2CCCN(c3ncccn3)C2)cs1 (stereo not shown) [CBK307198] has 83.0941%
In % of control remaining, CC(C)[C@@]1(C)SC(N[C@H]2C[C@H]3C[C@@H]2C[C@@H]3O)=NC1=O [CBK138400] has 116.114%

Remaining list, next part

SMILES	% of control remaining
O=C(c1ccc2ccccc2n1)N1CCC(F)CC1 [CBK200276]	116.123%
CCc1nc2c(OCc3ccc(S(C)(=O)=O)cc3)cccn2c1N(CCOC)C(C)=O [CBK147846]	114.531%
Cc1[nH]nc(C(F)(F)F)c1Cl [CBK025387]	101.951%
Cc1cc2c(o1)c1cnn(CC(=O)N3CCCC(C)C3)c(=O)c1n2C (stereo not shown) [CBK284218]	139.215%
Cc1cc(C)n(CCNCc2cc(-c3ccccc3)c[nH]c2=O)n1 [CBK284770]	64.34%
COCCn1c(CO)nnc1[C@H]1C[C@@H](NC(=O)c2ncc(F)cc2F)C1 [CBK307458]	149.674%
CC(NC(=O)Cc1cccc(F)c1)c1nnc2n1CCCCC2 (stereo not shown) [CBK305975]	132.555%
Cc1cn([C@H]2C[C@@H](O)[C@@H](CN)O2)c(=O)[nH]c1=O [CBK201315]	128.138%
O=C(CCCn1ccnc1)Nc1ccc(N2CCCCC2)c(F)c1 [CBK281385]	165.209%
COCCOC(=O)N1CCC(C(=O)NC(c2ccccc2)c2ccsc2)CC1 (stereo not shown) [CBK060155]	162.331%
Oc1c(CN2CCN(c3ccc(F)cc3)CC2)cc(Br)c2cccnc12 [CBK268051]	26.152%
N#Cc1cccc(NC(=O)c2cccs2)c1 [CBK066855]	102.74%
CN(C)CCN(Cc1ccccc1)Cc1c(F)cccc1Cl [CBK261867]	100.977%
OCc1cccc(-c2cncc(Nc3ccccc3)n2)c1 [CBK065576]	157.91%
CCOc1ccc(NC(=O)N(CCOC)Cc2cnn(C)c2)cc1Cl [CBK306697]	141.079%
O=C(O)CSc1c[nH]c2ccccc12 [CBK026377]	109.939%
CC(c1cccc(F)c1)n1cc(C(=O)NCCc2ccco2)nn1 (stereo not shown) [CBK283582]	111.743%
c1ccc(CCN2CCCN(c3ccnc(OCCN4CCOCC4)n3)CC2)cc1 [CBK083810]	169.05%
COC(=O)[C@@H]1Cc2ncn(C(C)C)c2CN1C(=O)c1ccc(F)cc1 [CBK288990]	137.076%
CC(=O)Nc1cccc(-c2cc(N3CCN(CC(=O)N(C)c4ccccc4)CC3)ncn2)c1 [CBK091134]	250.607%
CCc1nccn1CCCNC(=O)Nc1cc(-c2cccnc2)nn1C [CBK306657]	107.699%
O=C(NCc1ccc2c(c1)OCO2)N1CCCC(CO)C1 (stereo not shown) [CBK156034]	163.203%
Cc1nc2cc(C(=O)O)ccc2[nH]1 [CBK220035]	111.438%
COc1ccc(-c2nc(NC(=O)C3CC3)cnc2-c2cccc(C(F)(F)F)c2)cc1 [CBK036852]	172.689%
CSCCCNC(=O)N1CCN(c2cc(C(F)(F)F)ccn2)CC1 [CBK156433]	103.677%
COCCNc1nccnc1-c1cccc(C(=O)N2CCN(C)CC2)c1 [CBK036864]	115.019%
Cc1csc(N2CCC(Nc3cc(CO)ccc3Cl)CC2)n1 [CBK306440]	117.892%

SMILES	% of control remaining
Oc1ccc(Nc2nc3nonc3nc2Nc2ccccc2)cc1 [CBK263551]	48.2375%
CCOC(=O)Cn1c(CN2CCC(Cc3ccccc3)CC2)nc2c1c(=O)n(C)c(=O)n2C [CBK269454]	160.817%
Cc1cc(NC(=O)CN2CCN(c3ccccc3)CC2)c2ccccc2n1 [CBK278322G]	87.9635%
Cc1cccc(Cc2cccc(C3CCCN(C(=O)c4ccc(=O)[nH]c4)C3)n2)c1 (stereo not shown) [CBK286243]	140.687%
Cc1nc(-c2ccsc2)sc1C(=O)NC1CCCN(c2ncccn2)C1 (stereo not shown) [CBK305632]	90.0305%
O=C(c1ccco1)N1CCc2c([nH]c3ccccc23)C12CCN(Cc1ccccc1)CC2 [CBK286313]	132.315%
C[C@@H]1[C@H]2C[C@@H](C[C@H]1NC1=NC(=O)C(CC(=O)O)S1)C2(C)C (stereo partly shown) [CBK059514]	128.286%
COc1ccc(OC)c(NC(=O)CN2CCN(c3ccccn3)CC2)c1 [CBK262978]	116.725%
Cc1csc2ncc(C(=O)NCc3ccc4c(c3)OCO4)c(=O)n12 [CBK287292]	89.2669%
COc1cccc(NC(=O)CSCc2n[nH]c(=O)[nH]2)c1 [CBK266058]	117.433%
CC(C)C(=O)N1C[C@@H](N(C)C)[C@H](c2cn(C)c3ccccc23)C1 [CBK282717]	148.296%
O=C(O)CCCCc1nn(-c2ccc(Cl)c(Cl)c2)c2c1CCC2 [CBK012529]	141.793%
COc1ccc([C@H]2CN(Cc3ccccc3)[C@@H]3CCN(C(=O)Cc4ccsc4)C[C@H]23)cc1 [CBK285551]	49.9145%
COCCCOc1nc2ccccc2nc1NC(C)C [CBK115737]	108.806%
CC(Oc1ccc(Cl)cc1Cl)C(=O)Nc1ccc(N2CCN(C)CC2)cc1 (stereo not shown) [CBK266780]	162.104%
CC(Cn1cccn1)NC(=O)N1CCN(Cc2ccc(F)cc2)CC1 (stereo not shown) [CBK306948]	115.33%
COc1ccc(C2C(C(=O)c3ccco3)=C(O)C(=O)N2CCN2CCOCC2)cc1OC (stereo not shown) [CBK264544]	119.084%
CN1CCN(CCCNC(=O)N(CCC#N)C2CCCCC2)CC1 [CBK156346]	134.117%
CC(C)(C)c1csc(NC(=O)C2CC(=O)N(Cc3cccs3)C2)n1 (stereo not shown) [CBK175547]	130.455%
CCNC(=O)[C@H]1CC[C@]2(CC1)CNC(=O)c1cc(Cl)ccc1O2 [CBK284890]	138.578%
O=c1ccc2ccc(-c3cccc(C(F)(F)F)c3)nc2[nH]1 [CBK073717]	135.911%
O=C(Nc1ccc2cc(Br)cnc2n1)c1ccccc1[N+](=O)[O-] [CBK063253]	122.209%
CCCn1c(SCC(=O)Nc2scc(CC(C)C)c2C(=O)OCC)n[nH]c1=O [CBK295615]	112.842%
FC(F)(F)Oc1ccc(-c2cc(Nc3ccc(N4CCOCC4)cc3)ncn2)cc1 [CBK090934]	239.065%
CCCN1CC2(CCN(Cc3nccn3C)CC2)CC1C(=O)O (stereo not shown) [CBK307658]	133.647%
